The name of at least one read-out is uncertain.
Assay: Determination of pharmacokinetic parameters in mice (oral cassette dosing)
Format: in vivo
Settings: C57BL/6 mice, po 5 mg/kg
Method: FIG. 1: Graphical depiction of pharmacokinetic data of compound A compared to example 3. Compound plasma concentrations (logarithmic scale) are plottet against sampling timepoints. Conditions: C57BL/6 mice, oral cassette dosing, 5 mg/Kg in 10% HPBCD/20 mM phosphate buffer.
Determination of Pharmacokinetic Parameters in Mice
Data on the rate and extent of absorption of the test compounds were generated. Compounds were applied perorally at 5 mg/kg each to male 8 weeks old C57BL/6 mice and plasma concentrations of the test items were determined by LC-MS/MS. A solution of […] of each test item was produced by diluting them in the vehicle, 10% HPBCD (hydroxypropyl-beta-cyclodextrin) in 20 mM phosphate buffer pH 7.0 (v/w). These solutions were stirred overnight at room temperature and heated to 60° C. for 10 minutes, resulting in a full solubilization. Then, an identical volume of each solution were mixed together to constitute the cassette. The application was performed by administrating the solution perorally to the mice, with an application volume of 10 ml/kg. […] An aliquot of the particle-free supernatant was transferred to 200 μl sampler vials and subsequently subjected to LC MS/MS for quantification. […]
Cmax obs: maximal measured concentration;
tmax obs: time to reach the maximum measured concentration; […]

Cc1cc(OCc2c(-c3c(Cl)cccc3Cl)noc2C(C)C)cnc1Oc1ccc(C(=O)O)cc1 [Example 3, 4-(5-((3-(2,6-Dichlorophenyl)-5-isopropylisoxazol-4-yl)methoxy)-3-methylpyridin-2-yloxy)benzoic acid]
oral bioavailability compared to compound A: higher oral bioavailability

Source: patent US8193192B2, “Heterocyclic FXR binding compounds” (Phenex Pharmaceuticals AG, priority 2006, dated 2012)
